# Values of other authors as cited in publication PMC10975434, “Cannabinoid-Induced Inhibition of Morphine Glucuronidation and the Potential for In Vivo Drug–Drug Interactions” (Pharmaceutics, 2024).
# Tested on: UGT2B7
# Conditions: read-out: KM for UGT2B7 against morphine; cited from earlier work
smiles,measurement,value
"CN1CC[C@]23c4c5ccc(O)c4O[C@H]2[C@@H](O)C=C[C@H]3[C@H]1C5 [morphine, Morphine]",Km,275 µM
